The values below come from the supplement of paper PMC12067093, “Discovery and optimisation of a covalent ligand for TRIM25 and its application to targeted protein ubiquitination” (Chemical Science, 2025).

Protein sequences, listed by entry. Tags and fused reporters are not part of them. Lines headed by an entry give the natural chain unless they say otherwise; changes in a name come on top.
UniProt Q9H2L5: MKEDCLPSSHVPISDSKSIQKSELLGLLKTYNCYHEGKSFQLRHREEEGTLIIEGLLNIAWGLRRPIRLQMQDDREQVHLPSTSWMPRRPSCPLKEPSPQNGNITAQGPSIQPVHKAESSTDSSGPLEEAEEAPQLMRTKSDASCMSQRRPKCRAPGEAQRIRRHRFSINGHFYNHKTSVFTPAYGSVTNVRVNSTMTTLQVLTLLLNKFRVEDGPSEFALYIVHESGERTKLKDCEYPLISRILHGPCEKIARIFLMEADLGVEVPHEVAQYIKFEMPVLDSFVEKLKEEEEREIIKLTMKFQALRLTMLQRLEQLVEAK
UniProt Q684P5: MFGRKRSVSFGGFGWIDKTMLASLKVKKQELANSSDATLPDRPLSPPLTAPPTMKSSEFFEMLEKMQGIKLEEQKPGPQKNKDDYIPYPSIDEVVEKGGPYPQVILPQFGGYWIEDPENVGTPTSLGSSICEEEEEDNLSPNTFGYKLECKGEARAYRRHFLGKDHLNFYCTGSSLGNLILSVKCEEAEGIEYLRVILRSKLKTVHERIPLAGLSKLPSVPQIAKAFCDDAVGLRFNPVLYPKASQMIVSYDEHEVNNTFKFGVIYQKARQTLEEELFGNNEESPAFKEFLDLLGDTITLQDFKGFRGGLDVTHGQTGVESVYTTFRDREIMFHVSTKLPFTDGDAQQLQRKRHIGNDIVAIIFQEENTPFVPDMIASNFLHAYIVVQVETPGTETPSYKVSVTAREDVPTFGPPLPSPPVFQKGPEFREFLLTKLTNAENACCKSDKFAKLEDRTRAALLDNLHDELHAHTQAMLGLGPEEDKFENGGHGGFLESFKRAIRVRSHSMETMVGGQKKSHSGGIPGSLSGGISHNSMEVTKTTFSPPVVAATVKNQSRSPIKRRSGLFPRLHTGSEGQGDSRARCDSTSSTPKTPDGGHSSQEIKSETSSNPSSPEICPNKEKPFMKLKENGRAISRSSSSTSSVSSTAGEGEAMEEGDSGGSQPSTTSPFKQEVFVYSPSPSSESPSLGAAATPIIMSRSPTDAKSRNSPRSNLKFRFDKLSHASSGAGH
UniProt P49792, whole entry, looked up: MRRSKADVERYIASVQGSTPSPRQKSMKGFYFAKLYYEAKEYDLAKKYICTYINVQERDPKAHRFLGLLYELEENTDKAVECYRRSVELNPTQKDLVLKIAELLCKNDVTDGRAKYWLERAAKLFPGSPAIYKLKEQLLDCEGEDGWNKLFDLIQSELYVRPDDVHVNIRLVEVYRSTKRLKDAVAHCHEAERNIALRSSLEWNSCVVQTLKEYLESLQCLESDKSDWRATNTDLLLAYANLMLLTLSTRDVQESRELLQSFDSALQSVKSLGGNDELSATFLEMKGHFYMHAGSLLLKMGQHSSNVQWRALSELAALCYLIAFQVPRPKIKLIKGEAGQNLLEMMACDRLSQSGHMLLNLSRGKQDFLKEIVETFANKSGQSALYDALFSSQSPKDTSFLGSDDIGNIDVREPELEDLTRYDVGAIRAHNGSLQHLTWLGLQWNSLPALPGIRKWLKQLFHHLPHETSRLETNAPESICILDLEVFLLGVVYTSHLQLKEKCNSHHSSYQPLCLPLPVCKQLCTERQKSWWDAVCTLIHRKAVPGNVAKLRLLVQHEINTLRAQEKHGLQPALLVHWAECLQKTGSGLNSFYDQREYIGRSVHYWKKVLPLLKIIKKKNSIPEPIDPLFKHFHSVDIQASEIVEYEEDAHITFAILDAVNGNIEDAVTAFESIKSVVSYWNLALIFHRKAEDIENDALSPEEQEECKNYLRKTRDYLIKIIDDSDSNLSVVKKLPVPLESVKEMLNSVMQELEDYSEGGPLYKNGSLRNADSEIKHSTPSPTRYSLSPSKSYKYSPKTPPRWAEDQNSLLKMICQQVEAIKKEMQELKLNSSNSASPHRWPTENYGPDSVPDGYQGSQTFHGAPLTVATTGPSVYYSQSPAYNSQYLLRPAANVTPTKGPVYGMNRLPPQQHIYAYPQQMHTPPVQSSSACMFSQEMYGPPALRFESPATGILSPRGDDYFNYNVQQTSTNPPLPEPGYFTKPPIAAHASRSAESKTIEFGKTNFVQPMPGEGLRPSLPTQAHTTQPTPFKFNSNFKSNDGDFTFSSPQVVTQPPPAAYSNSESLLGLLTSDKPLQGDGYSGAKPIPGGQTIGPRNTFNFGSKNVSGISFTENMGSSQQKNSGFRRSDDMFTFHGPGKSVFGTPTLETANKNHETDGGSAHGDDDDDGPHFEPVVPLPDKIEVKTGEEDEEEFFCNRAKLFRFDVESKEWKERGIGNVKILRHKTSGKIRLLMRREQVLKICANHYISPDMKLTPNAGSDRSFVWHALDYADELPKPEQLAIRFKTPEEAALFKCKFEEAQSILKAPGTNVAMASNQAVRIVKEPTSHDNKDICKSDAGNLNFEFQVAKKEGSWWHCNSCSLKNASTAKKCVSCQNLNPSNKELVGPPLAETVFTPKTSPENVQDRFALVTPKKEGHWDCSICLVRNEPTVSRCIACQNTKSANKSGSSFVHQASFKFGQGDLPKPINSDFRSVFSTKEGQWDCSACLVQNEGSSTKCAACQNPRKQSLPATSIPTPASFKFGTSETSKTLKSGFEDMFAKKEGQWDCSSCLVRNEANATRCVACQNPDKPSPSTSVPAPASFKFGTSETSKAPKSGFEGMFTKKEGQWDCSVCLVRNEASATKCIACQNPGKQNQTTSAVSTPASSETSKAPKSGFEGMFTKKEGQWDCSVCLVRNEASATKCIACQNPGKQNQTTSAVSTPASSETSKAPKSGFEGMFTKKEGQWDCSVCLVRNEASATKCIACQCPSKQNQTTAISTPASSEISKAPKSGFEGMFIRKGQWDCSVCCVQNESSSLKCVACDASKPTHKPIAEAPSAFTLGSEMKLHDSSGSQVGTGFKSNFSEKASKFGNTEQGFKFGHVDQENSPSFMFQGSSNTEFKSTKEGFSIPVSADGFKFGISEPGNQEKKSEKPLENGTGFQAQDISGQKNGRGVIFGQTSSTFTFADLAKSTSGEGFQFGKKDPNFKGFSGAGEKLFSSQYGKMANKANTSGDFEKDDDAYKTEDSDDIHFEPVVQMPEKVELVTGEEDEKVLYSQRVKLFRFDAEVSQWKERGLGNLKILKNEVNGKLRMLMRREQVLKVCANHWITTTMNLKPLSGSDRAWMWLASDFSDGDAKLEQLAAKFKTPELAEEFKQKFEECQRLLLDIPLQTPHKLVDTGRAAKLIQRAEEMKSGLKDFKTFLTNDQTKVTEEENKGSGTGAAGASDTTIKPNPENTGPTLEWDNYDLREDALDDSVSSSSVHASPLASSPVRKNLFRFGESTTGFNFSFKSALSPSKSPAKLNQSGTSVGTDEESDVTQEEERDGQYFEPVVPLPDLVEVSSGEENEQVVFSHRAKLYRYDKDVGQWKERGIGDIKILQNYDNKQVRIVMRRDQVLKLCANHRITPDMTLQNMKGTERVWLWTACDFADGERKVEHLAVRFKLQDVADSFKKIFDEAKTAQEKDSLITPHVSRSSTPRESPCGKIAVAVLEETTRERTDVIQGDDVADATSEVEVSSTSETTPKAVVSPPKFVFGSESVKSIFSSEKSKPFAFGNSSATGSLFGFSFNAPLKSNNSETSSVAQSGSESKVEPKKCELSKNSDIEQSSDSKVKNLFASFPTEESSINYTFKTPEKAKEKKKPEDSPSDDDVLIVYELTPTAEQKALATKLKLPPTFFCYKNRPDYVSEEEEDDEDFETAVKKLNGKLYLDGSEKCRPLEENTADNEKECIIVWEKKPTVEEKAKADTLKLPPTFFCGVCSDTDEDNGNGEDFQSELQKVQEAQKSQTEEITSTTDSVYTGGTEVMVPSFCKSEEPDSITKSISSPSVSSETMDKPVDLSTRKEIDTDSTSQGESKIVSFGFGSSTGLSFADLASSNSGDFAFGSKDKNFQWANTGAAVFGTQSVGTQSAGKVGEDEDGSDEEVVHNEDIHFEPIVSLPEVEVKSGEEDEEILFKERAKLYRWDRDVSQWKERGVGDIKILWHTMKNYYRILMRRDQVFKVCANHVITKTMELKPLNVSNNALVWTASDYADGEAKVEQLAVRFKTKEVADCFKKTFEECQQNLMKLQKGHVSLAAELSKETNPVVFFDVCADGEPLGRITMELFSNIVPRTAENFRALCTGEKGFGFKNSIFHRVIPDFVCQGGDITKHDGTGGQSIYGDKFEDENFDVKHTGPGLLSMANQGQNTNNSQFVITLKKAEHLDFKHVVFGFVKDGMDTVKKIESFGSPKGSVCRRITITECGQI
UniProt Q8TEU7: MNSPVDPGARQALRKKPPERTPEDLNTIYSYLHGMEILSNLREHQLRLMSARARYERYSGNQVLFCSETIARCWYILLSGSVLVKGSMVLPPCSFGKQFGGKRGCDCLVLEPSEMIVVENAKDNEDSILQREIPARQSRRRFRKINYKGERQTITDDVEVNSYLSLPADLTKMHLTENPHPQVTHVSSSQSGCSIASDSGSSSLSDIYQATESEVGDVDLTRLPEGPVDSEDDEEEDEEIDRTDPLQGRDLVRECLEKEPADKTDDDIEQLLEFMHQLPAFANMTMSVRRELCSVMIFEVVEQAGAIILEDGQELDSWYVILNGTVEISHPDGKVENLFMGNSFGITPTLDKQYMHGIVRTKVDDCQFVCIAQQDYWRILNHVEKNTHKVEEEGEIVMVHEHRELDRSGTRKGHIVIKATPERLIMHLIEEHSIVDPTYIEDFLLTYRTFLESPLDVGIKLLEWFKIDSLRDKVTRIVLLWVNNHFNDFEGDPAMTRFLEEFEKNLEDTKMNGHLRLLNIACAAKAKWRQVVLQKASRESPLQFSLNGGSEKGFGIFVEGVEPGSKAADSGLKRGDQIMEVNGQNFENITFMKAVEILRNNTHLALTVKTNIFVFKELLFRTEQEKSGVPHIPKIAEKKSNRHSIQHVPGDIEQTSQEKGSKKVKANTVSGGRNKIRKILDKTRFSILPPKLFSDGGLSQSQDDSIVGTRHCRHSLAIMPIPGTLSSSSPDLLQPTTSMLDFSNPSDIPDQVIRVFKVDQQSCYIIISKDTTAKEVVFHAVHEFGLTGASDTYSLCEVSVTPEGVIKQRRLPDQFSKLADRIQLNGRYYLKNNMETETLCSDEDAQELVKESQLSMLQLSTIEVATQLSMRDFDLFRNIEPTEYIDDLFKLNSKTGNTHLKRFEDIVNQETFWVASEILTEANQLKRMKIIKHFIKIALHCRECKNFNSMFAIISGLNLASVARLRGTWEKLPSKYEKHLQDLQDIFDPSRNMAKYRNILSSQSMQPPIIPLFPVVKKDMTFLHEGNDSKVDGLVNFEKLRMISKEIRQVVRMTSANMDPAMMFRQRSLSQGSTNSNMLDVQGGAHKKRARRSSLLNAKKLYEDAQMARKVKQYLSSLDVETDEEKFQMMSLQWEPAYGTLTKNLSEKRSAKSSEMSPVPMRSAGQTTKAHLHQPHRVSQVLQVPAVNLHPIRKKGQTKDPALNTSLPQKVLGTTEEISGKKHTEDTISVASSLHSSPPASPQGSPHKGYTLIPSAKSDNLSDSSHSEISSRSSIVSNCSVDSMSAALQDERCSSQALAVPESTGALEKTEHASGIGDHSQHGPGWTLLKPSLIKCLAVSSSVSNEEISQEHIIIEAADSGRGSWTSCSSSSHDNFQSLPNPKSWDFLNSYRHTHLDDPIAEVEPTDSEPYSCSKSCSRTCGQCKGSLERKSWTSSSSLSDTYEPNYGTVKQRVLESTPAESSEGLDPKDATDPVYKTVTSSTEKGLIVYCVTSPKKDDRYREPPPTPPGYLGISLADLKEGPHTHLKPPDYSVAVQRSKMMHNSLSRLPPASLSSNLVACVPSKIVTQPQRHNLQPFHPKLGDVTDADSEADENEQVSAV
UniProt P46060: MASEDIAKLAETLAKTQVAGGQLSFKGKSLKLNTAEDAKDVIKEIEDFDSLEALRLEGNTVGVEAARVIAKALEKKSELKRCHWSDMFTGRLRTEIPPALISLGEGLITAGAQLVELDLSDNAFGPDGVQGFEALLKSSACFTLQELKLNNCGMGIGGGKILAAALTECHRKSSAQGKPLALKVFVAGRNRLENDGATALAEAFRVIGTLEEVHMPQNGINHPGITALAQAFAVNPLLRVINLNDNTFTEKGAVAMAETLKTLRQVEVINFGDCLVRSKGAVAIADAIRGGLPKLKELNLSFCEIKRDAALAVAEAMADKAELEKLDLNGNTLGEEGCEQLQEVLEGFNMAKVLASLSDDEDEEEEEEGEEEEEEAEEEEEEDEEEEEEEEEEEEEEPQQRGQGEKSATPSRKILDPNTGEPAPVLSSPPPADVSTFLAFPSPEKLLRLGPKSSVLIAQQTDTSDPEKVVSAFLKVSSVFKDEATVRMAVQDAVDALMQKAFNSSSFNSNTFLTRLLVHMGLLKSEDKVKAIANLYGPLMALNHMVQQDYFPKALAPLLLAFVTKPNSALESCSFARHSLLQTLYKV

Compound in the assay: CC1Cc2ccccc2N1C(=O)C1CCCN(C1)C(=O)CCl (mixture of isomers) [TRIM25 ligand 11 (diastereomer mixture)]
The assay can be described thus: probe-labelled cysteine peptide fold change vs DMSO (competition) (log2 fold change); higher = less target engagement (more negative = stronger competition). The note with it: THP-1, incubation time: 4 h.

The other results are listed elsewhere or left out.
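Note: competitive chemoproteomic profiling in live THP-1 cells with an iodoacetamide desthiobiotin (IA-DTB) probe, comparing probe-labelled peptide intensities in compound-treated cells against DMSO-treated controls.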

“RBKS_Q9H477_59_GANQCVQAAR (UniProt Q9H477)”: the “probe-labelled cysteine peptide fold change” value was -0.143 (10 µM) and -0.00794 (50 µM).

For “RANBP10_Q6VN20_501_RQLCGGNQAATER (UniProt Q6VN20)”, the “probe-labelled cysteine peptide fold change” value reads like this: (10 µM) -0.0995; (50 µM) -0.04.

As to “RASSF4_Q9H2L5_5_EDCLPSSHVPISDSK (UniProt Q9H2L5)”, the “probe-labelled cysteine peptide fold change” value was 0.0963 (10 µM) and -0.308 (50 µM).

Turning to “RAP1GDS1_P52306_454_LVEWCEAK (UniProt P52306)”, the “probe-labelled cysteine peptide fold change” value by setting is: (10 µM) 0.0696; (50 µM) -0.0124.

In the case of “RASAL2_Q9UJF2_189_YFCELCLDDTLFAR (UniProt Q9UJF2)”, the “probe-labelled cysteine peptide fold change” value by setting is: (10 µM) 0.119; (50 µM) 0.0179.

As for “RAP1GAP2_Q684P5_185_CEEAEGIEYLR (UniProt Q684P5)”, the “probe-labelled cysteine peptide fold change” value (10 µM) was 0.119 and the “probe-labelled cysteine peptide fold change” value (50 µM) worked out at 0.145.

As to “RANBP2_P49792_1375_CVSCQNLNPSNK (UniProt P49792)”, the “probe-labelled cysteine peptide fold change” value was found to be 0.0315 (10 µM) and 0.125 (50 µM).

Turning to “RCE1_Q9Y256_314_LYGSLPLCVLLER (UniProt Q9Y256)”, the “probe-labelled cysteine peptide fold change” value amounted to 0.182 (10 µM) and 0.0157 (50 µM).

With “RAPGEF6_Q8TEU7_522_LLNIACAAK (UniProt Q8TEU7)”, the “probe-labelled cysteine peptide fold change” value reads like this: (10 µM) 0.00415; (50 µM) -0.0843.

On to “RASGRP2_Q7LDG7_76_TCHLVR (UniProt Q7LDG7)”, for which the “probe-labelled cysteine peptide fold change” value was 0.0131 (10 µM) and 0.0133 (50 µM).

As to “RBCK1_Q9BYM8_308_ECLQGTIR (UniProt Q9BYM8)”, the “probe-labelled cysteine peptide fold change” value runs as follows: (10 µM) -0.0388; (50 µM) 0.00995.

“RADIL_Q96JH8_298_PSISLSAPDILPLHCTIR (UniProt Q96JH8)”: the “probe-labelled cysteine peptide fold change” value runs as follows: (10 µM) 0.109; (50 µM) 0.111.

For “RBM6_P78332_960_LACLLCR (UniProt P78332)”, the “probe-labelled cysteine peptide fold change” value reads like this: (10 µM) -0.139; (50 µM) 0.0569.

For “RAD9A_Q99638_3_CLVTGGNVK (UniProt Q99638)”, the “probe-labelled cysteine peptide fold change” value amounted to 0.0691 (10 µM) and 0.0993 (50 µM).

Consider “RAI14_Q9P0K7_139_TALHYAAAQGCLQAVQILCEHK (UniProt Q9P0K7)”, for which the “probe-labelled cysteine peptide fold change” value runs as follows: (10 µM) -0.129; (50 µM) 0.111.

With “RAP1GAP2_Q684P5_584_CDSTSSTPK (UniProt Q684P5)”, the “probe-labelled cysteine peptide fold change” value by setting is: (10 µM) -0.0122; (50 µM) 0.00393.

Regarding “RANGAP1_P46060_82_CHWSDMFTGR (UniProt P46060)”, the “probe-labelled cysteine peptide fold change” value (10 µM) stood at 0.177 and the “probe-labelled cysteine peptide fold change” value (50 µM) is -0.189.

As for “RBM28_Q9NW13_97_NENSECPK (UniProt Q9NW13)”, the “probe-labelled cysteine peptide fold change” value was -0.0172 (10 µM) and -0.0233 (50 µM).

For the target “RASGRP4_Q8TDF6_14_SHQECTGK (UniProt Q8TDF6)”, the “probe-labelled cysteine peptide fold change” value (10 µM) is -0.0302 and the “probe-labelled cysteine peptide fold change” value (50 µM) was -0.022.

As to “RAPGEF6_Q8TEU7_105_GCDCLVLEPSEMIVVENAK (UniProt Q8TEU7)”, the “probe-labelled cysteine peptide fold change” value (10 µM) was found to be 0.088 and the “probe-labelled cysteine peptide fold change” value (50 µM) was -0.116.

As to “RBBP6_Q7Z6E9_27_LNYDTVTFDGLHISLCDLKK (UniProt Q7Z6E9)”, the “probe-labelled cysteine peptide fold change” value is -0.13 (10 µM) and 0.0107 (50 µM).

On to “RARA_P10276_130_NCIINKVTR (UniProt P10276)”, for which the “probe-labelled cysteine peptide fold change” value runs as follows: (10 µM) 0.119; (50 µM) 0.379.

In the case of “RANBP6_O60518_952_SLCSEAVPLLVK (UniProt O60518)”, the “probe-labelled cysteine peptide fold change” value was -0.00362 (10 µM) and -0.161 (50 µM).

As to “RBBP6_Q7Z6E9_296+299_TALLESDEHTCPTCHQNDVSPDALIANK (UniProt Q7Z6E9)”, the “probe-labelled cysteine peptide fold change” value (10 µM) is -0.204 and the “probe-labelled cysteine peptide fold change” value (50 µM) was -0.218.

As for “RBM19_Q9Y4C8_293_EPTTCHTVK (UniProt Q9Y4C8)”, the “probe-labelled cysteine peptide fold change” value (10 µM) stood at 0.0444 and the “probe-labelled cysteine peptide fold change” value (50 µM) came to 0.0582.

As for “RANGAP1_P46060_82_RCHWSDMFTGR (UniProt P46060)”, the “probe-labelled cysteine peptide fold change” value reads like this: (10 µM) 0.0798; (50 µM) -0.0723.

As to “RBM5_P52756_187_FEDWLCNK (UniProt P52756)”, the “probe-labelled cysteine peptide fold change” value is -0.112 (10 µM) and -0.0495 (50 µM).

With “RANBP2_P49792_1196_TGEEDEEEFFCNR (UniProt P49792)”, the “probe-labelled cysteine peptide fold change” value (10 µM) is -0.113 and the “probe-labelled cysteine peptide fold change” value (50 µM) turned out to be 0.219.

Take “RBBP4_Q09028_203_EGYGLSWNPNLSGHLLSASDDHTICLWDISAVPK (UniProt Q09028)”: the “probe-labelled cysteine peptide fold change” value (10 µM) was 0.0702 and the “probe-labelled cysteine peptide fold change” value (50 µM) is -0.149.

With “RAN_P62826_120_VCENIPIVLCGNK (UniProt P62826)”, the “probe-labelled cysteine peptide fold change” value by setting is: (10 µM) -0.0207; (50 µM) 0.035.
